Data: paper PMC5915600
No constants are given. Whether binding was seen depends on the method and setting. For some assays here: Binding seen in cells or lysates may run through a third protein. Some entries that bind do so weakly or less than the wild type. For some assays here: Where a sequence is shown, tags or fusion partners need not be part of it. One block for each binder: values may come before it.

Amino acid sequences for entries named in this document (tags omitted).
UniProt P26358: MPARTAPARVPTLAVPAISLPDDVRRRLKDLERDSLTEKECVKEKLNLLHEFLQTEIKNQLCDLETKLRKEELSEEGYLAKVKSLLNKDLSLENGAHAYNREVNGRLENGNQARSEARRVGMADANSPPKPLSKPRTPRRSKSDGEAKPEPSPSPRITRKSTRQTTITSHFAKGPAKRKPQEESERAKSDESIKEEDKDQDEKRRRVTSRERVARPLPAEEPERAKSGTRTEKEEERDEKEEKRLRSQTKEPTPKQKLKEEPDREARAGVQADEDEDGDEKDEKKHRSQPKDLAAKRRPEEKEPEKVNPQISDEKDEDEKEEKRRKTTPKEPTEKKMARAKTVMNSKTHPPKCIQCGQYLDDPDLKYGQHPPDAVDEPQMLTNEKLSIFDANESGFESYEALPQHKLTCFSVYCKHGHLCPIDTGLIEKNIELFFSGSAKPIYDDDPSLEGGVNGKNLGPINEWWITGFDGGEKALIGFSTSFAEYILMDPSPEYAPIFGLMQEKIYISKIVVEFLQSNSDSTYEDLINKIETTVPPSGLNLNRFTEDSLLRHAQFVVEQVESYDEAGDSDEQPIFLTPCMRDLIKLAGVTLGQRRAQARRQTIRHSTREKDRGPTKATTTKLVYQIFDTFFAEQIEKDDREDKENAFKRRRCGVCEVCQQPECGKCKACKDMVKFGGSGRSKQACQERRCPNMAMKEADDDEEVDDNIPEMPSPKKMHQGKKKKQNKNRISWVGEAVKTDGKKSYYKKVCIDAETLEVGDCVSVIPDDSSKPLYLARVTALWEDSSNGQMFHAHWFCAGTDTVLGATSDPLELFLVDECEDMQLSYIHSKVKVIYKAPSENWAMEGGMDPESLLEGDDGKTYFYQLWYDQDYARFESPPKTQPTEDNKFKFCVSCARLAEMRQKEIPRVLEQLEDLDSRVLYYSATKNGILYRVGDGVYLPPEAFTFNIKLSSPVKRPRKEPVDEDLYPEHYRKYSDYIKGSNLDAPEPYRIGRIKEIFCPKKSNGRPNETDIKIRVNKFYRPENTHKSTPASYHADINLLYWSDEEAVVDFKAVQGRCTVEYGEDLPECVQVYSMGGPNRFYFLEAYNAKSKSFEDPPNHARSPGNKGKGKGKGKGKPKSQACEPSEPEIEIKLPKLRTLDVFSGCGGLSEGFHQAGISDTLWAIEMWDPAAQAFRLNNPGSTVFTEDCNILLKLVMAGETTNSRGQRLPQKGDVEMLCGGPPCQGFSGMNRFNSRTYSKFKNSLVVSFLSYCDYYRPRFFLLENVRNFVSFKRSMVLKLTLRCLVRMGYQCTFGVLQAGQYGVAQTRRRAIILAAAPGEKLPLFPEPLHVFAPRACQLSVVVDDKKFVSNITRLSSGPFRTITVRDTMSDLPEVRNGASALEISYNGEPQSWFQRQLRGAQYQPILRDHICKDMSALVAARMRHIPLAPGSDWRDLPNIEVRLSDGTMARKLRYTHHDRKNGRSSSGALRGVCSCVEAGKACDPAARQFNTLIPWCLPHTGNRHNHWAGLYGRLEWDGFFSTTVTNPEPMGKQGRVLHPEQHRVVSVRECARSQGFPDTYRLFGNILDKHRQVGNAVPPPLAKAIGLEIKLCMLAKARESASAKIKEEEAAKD
UniProt Q01094: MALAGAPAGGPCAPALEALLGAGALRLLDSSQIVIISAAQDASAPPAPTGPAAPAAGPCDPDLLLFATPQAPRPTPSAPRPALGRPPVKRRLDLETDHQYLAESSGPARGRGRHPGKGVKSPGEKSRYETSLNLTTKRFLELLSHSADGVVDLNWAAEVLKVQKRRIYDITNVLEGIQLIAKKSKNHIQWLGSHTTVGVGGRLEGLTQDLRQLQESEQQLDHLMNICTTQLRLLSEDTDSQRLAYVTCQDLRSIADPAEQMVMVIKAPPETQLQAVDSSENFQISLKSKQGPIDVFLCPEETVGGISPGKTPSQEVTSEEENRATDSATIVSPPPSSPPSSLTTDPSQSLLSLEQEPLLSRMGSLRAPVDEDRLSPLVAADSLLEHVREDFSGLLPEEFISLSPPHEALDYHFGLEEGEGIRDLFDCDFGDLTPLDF

Experiments:
[1] = target: DNA (cytosine-5)-methyltransferase 1 (DNMT1), endogenous (human (endogenous in HCT116)) (UniProt P26358); assay: co-IP; endogenous proteins, HCT116 synchronized at the G1/S border by thymidine and aphidicolin, 0-9 h after release
[2] = target: DNA (cytosine-5)-methyltransferase 1 (DNMT1), endogenous (human (endogenous in HCT116)) (UniProt P26358); assay: condition: only 10–12 h after release from the G1/S border; co-IP; endogenous proteins, HCT116 synchronized at the G1/S border by thymidine and aphidicolin, 10-12 h after release (late S and early G2)
[3] = target: T1, cognate unmethylated K142 peptide of DNMT1 (human); assay: pull-down; DNMT1 K142me1 or K142me0 peptide on Sulfolink resin, pre-blocked with 5 μg GST for 2 h, then 1.5 μg GST fusion protein in 0.1% NP40, 50 mM Tris-Cl pH 7.5, 150 mM NaCl at 4 °C; western blot; both purified
T1 sequence (peptide, coupled to Sulfolink resin through the C-terminal cysteine): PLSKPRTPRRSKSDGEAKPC

[4] = target: DNA (cytosine-5)-methyltransferase 1 (DNMT1), endogenous (human (endogenous in HCT116)) (UniProt P26358); assay: co-IP; endogenous proteins, HCT116 synchronized at the G1/S border by thymidine and aphidicolin, 10-12 h after release (late S and early G2)
[5] = target: DNA (cytosine-5)-methyltransferase 1 (DNMT1), endogenous (human (endogenous in HCT116)) (UniProt P26358); assay: co-IP; endogenous proteins immunoprecipitated from HCT116 lysates (0.5% NP40, 50 mM Tris pH 7.5, 150 mM NaCl; usually 500 μg lysate; Protein A-Sepharose), western blot; in some panels cells with SET7 expression, SET7 or PHF20L1 siRNA, MG132 5 μg/ml for the last 6 h
[6] = target: E2F1, endogenous (human (endogenous in HCT116)) (UniProt Q01094); assay: as above
[7] = target: DNA (cytosine-5)-methyltransferase 1 (DNMT1), endogenous (human (endogenous in HCT116)) (UniProt P26358); assay: co-IP; one partner a Flag- or HA-tagged construct expressed in HCT116 (transient or stable), the other endogenous; NP40 lysis buffer, western blot; in some panels SET7 co-expressed or MG132 for the last 6 h

B2: GST-L3MBTL1 (protein, UniProt Q9Y468 1-840)
chain: MHLVAGDSPGSGPHLPATAFIIPASSATLGLPSSALDVSCFPREPIHVGAPEQVAGCEPVSATVLPQLSAGPASSSTSTVRLLEWTEAAAPPPGGGLRFRISEYKPLNMAGVEQPPSPELRQEGVTEYEDGGAPAGDGEAGPQQAEDHPQNPPEDPNQDPPEDDSTCQCQACGPHQAAGPDLGSSNDGCPQLFQERSVIVENSSGSTSASELLKPMKKRKRREYQSPSEEESEPEAMEKQEEGKDPEGQPTASTPESEEWSSSQPATGEKKECWSWESYLEEQKAITAPVSLFQDSQAVTHNKNGFKLGMKLEGIDPQHPSMYFILTVAEVCGYRLRLHFDGYSECHDFWVNANSPDIHPAGWFEKTGHKLQPPKGYKEEEFSWSQYLRSTRAQAAPKHLFVSQSHSPPPLGFQVGMKLEAVDRMNPSLVCVASVTDVVDSRFLVHFDNWDDTYDYWCDPSSPYIHPVGWCQKQGKPLTPPQDYPDPDNFCWEKYLEETGASAVPTWAFKVRPPHSFLVNMKLEAVDRRNPALIRVASVEDVEDHRIKIHFDGWSHGYDFWIDADHPDIHPAGWCSKTGHPLQPPLGPREPSSASPGGCPPLSYRSLPHTRTSKYSFHHRKCPTPGCDGSGHVTGKFTAHHCLSGCPLAERNQSRLKAELSDSEASARKKNLSGFSPRKKPRHHGRIGRPPKYRKIPQEDFQTLTPDVVHQSLFMSALSAHPDRSLSVCWEQHCKLLPGVAGISASTVAKWTIDEVFGFVQTLTGCEDQARLFKDEARIVRVTHVSGKTLVWTVAQLGDLVCSDHLQEGKGILETGVHSLLCSLPTHLLAKLSFASDSQY
binding [3]: no binding (tested: 1.5 μg)

B3: L3MBTL3, endogenous (protein, UniProt Q96JM7 1-780)
chain: MTESASSTSGQEFDVFSVMDWKDGVGTLPGSDLKFRVNEFGALEVITDENEMENVKKATATTTWMVPTAQEAPTSPPSSRPVFPPAYWTSPPGCPTVFSEKTGMPFRLKDPVKVEGLQFCENCCQYGNVDECLSGGNYCSQNCARHIKDKDQKEERDVEEDNEEEDPKCSRKKKPKLSLKADTKEDGEERDDEMENKQDVRILRGSQRARRKRRGDSAVLKQGLPPKGKKAWCWASYLEEEKAVAVPAKLFKEHQSFPYNKNGFKVGMKLEGVDPEHQSVYCVLTVAEVCGYRIKLHFDGYSDCYDFWVNADALDIHPVGWCEKTGHKLHPPKGYKEEEFNWQTYLKTCKAQAAPKSLFENQNITVIPSGFRVGMKLEAVDKKNPSFICVATVTDMVDNRFLVHFDNWDESYDYWCEASSPHIHPVGWCKEHRRTLITPPGYPNVKHFSWDKYLEETNSLPAPARAFKVKPPHGFQKKMKLEVVDKRNPMFIRVATVADTDDHRVKVHFDGWNNCYDYWIDADSPDIHPVGWCSKTGHPLQPPLSPLELMEASEHGGCSTPGCKGIGHFKRARHLGPHSAANCPYSEINLNKDRIFPDRLSGEMPPASPSFPRNKRTDANESSSSPEIRDQHADDVKEDFEERTESEMRTSHEARGAREEPTVQQAQRRSAVFLSFKSPIPCLPLRWEQQSKLLPTVAGIPASKVSKWSTDEVSEFIQSLPGCEEHGKVFKDEQIDGEAFLLMTQTDIVKIMSIKLGPALKIFNSILMFKAAEKNSHNEL
binding [1]: binds weakly
binding [4]: binds
binding [5]: binds
binding [6]: binds

Continued, values first:

binding [1]: binds
binding [2]: no binding
B1: PHF20L1, endogenous (protein, UniProt A8MW92 1-1017)
chain: MSKKPPNRPGITFEIGARLEALDYLQKWYPSRIEKIDYEEGKMLVHFERWSHRYDEWIYWDSNRLRPLERPALRKEGLKDEEDFFDFKAGEEVLARWTDCRYYPAKIEAINKEGTFTVQFYDGVIRCLKRMHIKAMPEDAKGQVKSQHPLSWCCPIDPAGSCNQSMGSEDWIALVKAAAAAAAKNKTGSKPRTSANSNKDKDKDERKWFKVPSKKEETSTCIATPDVEKKEDLPTSSETFGLHVENVPKMVFPQPESTLSNKRKNNQGNSFQAKRARLNKITGLLASKAVGVDGAEKKEDYNETAPMLEQAISPKPQSQKKNEADISSSANTQKPALLSSTLSSGKARSKKCKHESGDSSGCIKPPKSPLSPELIQVEDLTLVSQLSSSVINKTSPPQPVNPPRPFKHSERRRRSQRLATLPMPDDSVEKVSSPSPATDGKVFSISSQNQQESSVPEVPDVAHLPLEKLGPCLPLDLSRGSEVTAPVASDSSYRNECPRAEKEDTQMLPNPSSKAIADGRGAPAAAGISKTEKKVKLEDKSSTAFGKRKEKDKERREKRDKDHYRPKQKKKKKKKKKSKQHDYSDYEDSSLEFLERCSSPLTRSSGSSLASRSMFTEKTTTYQYPRAILSVDLSGENLSDVDFLDDSSTESLLLSGDEYNQDFDSTNFEESQDEDDALNEIVRCICEMDEENGFMIQCEECLCWQHSVCMGLLEESIPEQYICYICRDPPGQRWSAKYRYDKEWLNNGRMCGLSFFKENYSHLNAKKIVSTHHLLADVYGVTEVLHGLQLKIGILKNKHHPDLHLWACSGKRKDQDQIIAGVEKKIAQDTVNREEKKYVQNHKEPPRLPLKMEGTYITSEHSYQKPQSFGQDCKSLADPGSSDDDDVSSLEEEQEFHMRSKNSLQYSAKEHGMPEKNPAEGNTVFVYNDKKGTEDPGDSHLQWQLNLLTHIENVQNEVTSRMDLIEKEVDVLESWLDFTGELEPPDPLARLPQLKRHIKQLLIDMGKVQQIATLCSV

binding [7]: binds
B4: HA-tagged L3MBTL3 wild-type (full length 1-780) (protein, UniProt Q96JM7 1-780)
chain: MTESASSTSGQEFDVFSVMDWKDGVGTLPGSDLKFRVNEFGALEVITDENEMENVKKATATTTWMVPTAQEAPTSPPSSRPVFPPAYWTSPPGCPTVFSEKTGMPFRLKDPVKVEGLQFCENCCQYGNVDECLSGGNYCSQNCARHIKDKDQKEERDVEEDNEEEDPKCSRKKKPKLSLKADTKEDGEERDDEMENKQDVRILRGSQRARRKRRGDSAVLKQGLPPKGKKAWCWASYLEEEKAVAVPAKLFKEHQSFPYNKNGFKVGMKLEGVDPEHQSVYCVLTVAEVCGYRIKLHFDGYSDCYDFWVNADALDIHPVGWCEKTGHKLHPPKGYKEEEFNWQTYLKTCKAQAAPKSLFENQNITVIPSGFRVGMKLEAVDKKNPSFICVATVTDMVDNRFLVHFDNWDESYDYWCEASSPHIHPVGWCKEHRRTLITPPGYPNVKHFSWDKYLEETNSLPAPARAFKVKPPHGFQKKMKLEVVDKRNPMFIRVATVADTDDHRVKVHFDGWNNCYDYWIDADSPDIHPVGWCSKTGHPLQPPLSPLELMEASEHGGCSTPGCKGIGHFKRARHLGPHSAANCPYSEINLNKDRIFPDRLSGEMPPASPSFPRNKRTDANESSSSPEIRDQHADDVKEDFEERTESEMRTSHEARGAREEPTVQQAQRRSAVFLSFKSPIPCLPLRWEQQSKLLPTVAGIPASKVSKWSTDEVSEFIQSLPGCEEHGKVFKDEQIDGEAFLLMTQTDIVKIMSIKLGPALKIFNSILMFKAAEKNSHNEL
